Experimental data from the supplement of paper PMC4635364.
Structures can show the parent of a compound that is named as a salt. This is one part of the list. Repeats in this data set agree poorly, so a single value says little.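 ReNCell VM, a human fetal ventral-midbrain neural progenitor line, was differentiated without mitogens. Blinded raters scored images stained for doublecortin (early neurons) or tyrosine hydroxylase (dopaminergic neurons) against untreated wells (0 = no change). Scores were averaged across repeats and both raters, and compounds averaging 2 or more were selected as hits for retesting.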

How the values were obtained:
[1] = system: ReNCell VM; test: neuronal differentiation score (DCX+ cell fraction vs untreated, manual image score) (score (-3 to 3)); higher = more neuronal differentiation; conditions: 2 uM, 2 weeks
[2] = system: ReNCell VM; test: dopaminergic neuron differentiation score (TH+ cell fraction vs untreated, manual image score) (score (0 to 3)); higher = more TH+ dopaminergic neuron differentiation; conditions: 2 uM, 4 weeks, BDNF 10 ng/ml + GDNF 10 ng/ml

With `C[C@H](N)[C@H](O)c1ccc(O)c(O)c1` [Levonordefrin] the neuronal differentiation score ([1]; library: Prestwick) was inactive: 0 and the “dopaminergic neuron differentiation score” value ([2]; library: Prestwick) was inactive: 0.

`CC(C)c1c(CN(C)C(C)Cc2ccccc2)n(C)n(-c2ccccc2)c1=O` (stereo not given) was tested, and the neuronal differentiation score ([1]; library: Spectrum) was inactive: 0 and the “dopaminergic neuron differentiation score” value ([2]; library: Spectrum) was inactive: 0.

`Cc1cccc(C)c1NC(=O)CN1CCCC1=O` was tested, and the neuronal differentiation score ([1]; library: Spectrum) was inactive: 0 and the “dopaminergic neuron differentiation score” value ([2]; library: Spectrum) was inactive: 0.

For `CC(C)(O)[C@@H]1[C@H]2OC(=O)[C@@H]1[C@]1(O)C[C@H]3O[C@]34C(=O)O[C@H]2[C@]14C`, the neuronal differentiation score ([1]; library: Spectrum) was inactive: 0 and the “dopaminergic neuron differentiation score” value ([2]; library: Spectrum) was inactive: 0.

With `CC(C)=CC1C(C(=O)OCc2cccc(Oc3ccccc3)c2)C1(C)C` (stereo not given) the neuronal differentiation score ([1]; library: Spectrum) was inactive: 0 and the “dopaminergic neuron differentiation score” value ([2]; library: Spectrum) was inactive: 0.

For `O=[N+]([O-])c1cc([As](=O)(O)O)ccc1O` [Roxarsone], the neuronal differentiation score ([1]; library: Prestwick) was inactive: 0 and the “dopaminergic neuron differentiation score” value ([2]; library: Prestwick) was inactive: 0.

For `CN(C)Cc1c[nH]c2ccccc12`, the neuronal differentiation score ([1]; library: Spectrum) was inactive: 0 and the “dopaminergic neuron differentiation score” value ([2]; library: Spectrum) was inactive: 0.

`C#CCN(C)[C@H](C)Cc1ccccc1` [Selegiline hydrochloride] was tested, and the neuronal differentiation score ([1]; library: Prestwick) was inactive: 0 and the “dopaminergic neuron differentiation score” value ([2]; library: Prestwick) was inactive: 0.

For `O=C1Nc2ccccc2C2(CCN(CCc3ccc(C(F)(F)F)cc3)CC2)O1`, the neuronal differentiation score ([1]; library: Tocriscreen) was inactive: 0 and the “dopaminergic neuron differentiation score” value ([2]; library: Tocriscreen) was inactive: 0.

In the case of `COc1cc([C@@H]2c3cc4c(cc3[C@H](OC(C)=O)[C@H]3COC(=O)[C@H]23)OCO4)cc(OC)c1OC`, the neuronal differentiation score ([1]; library: Spectrum) is reported as inactive: 0 and the “dopaminergic neuron differentiation score” value ([2]; library: Spectrum) is reported as inactive: 0.

For `C[C@@H]1CC[C@H]2[C@@H](C)C(=O)O[C@@H]3O[C@@]4(C)CC[C@@H]1[C@]32OO4`, the neuronal differentiation score ([1]; library: Spectrum) was inactive: 0 and the “dopaminergic neuron differentiation score” value ([2]; library: Spectrum) was inactive: 1.

`NCCCP(=O)(O)O` [3-Aminopropylphosphonic acid] was tested, and the neuronal differentiation score ([1]; library: LOPAC) was inactive: 0 and the “dopaminergic neuron differentiation score” value ([2]; library: LOPAC) was inactive: 0.

With `COC(=O)C(c1ccccc1)C1CCCCN1` (stereo not given) the neuronal differentiation score ([1]; library: Spectrum) was inactive: 0 and the “dopaminergic neuron differentiation score” value ([2]; library: Spectrum) was inactive: 0.

In the case of `Oc1cc(Cl)ccc1Oc1ccc(Cl)cc1Cl` [Triclosan], the neuronal differentiation score ([1]; library: Prestwick) is reported as inactive: 0 and the “dopaminergic neuron differentiation score” value ([2]; library: Prestwick) is reported as inactive: 0.

`C[C@H]1CC[C@]2(NC1)O[C@H]1C[C@H]3[C@@H]4CC[C@H]5C[C@@H](O[C@@H]6O[C@H](CO)[C@H](O[C@@H]7O[C@H](CO)[C@@H](O)[C@H](O[C@@H]8OC[C@@H](O)[C@H](O)[C@H]8O)[C@H]7O[C@@H]7O[C@H](CO)[C@@H](O)[C@H](O)[C@H]7O)[C@H](O)[C@H]6O)CC[C@]5(C)[C@H]4CC[C@]3(C)[C@H]1[C@@H]2C` [Tomatine] was tested, and the neuronal differentiation score ([1]; library: Phytochemical) was inactive: 0 and the “dopaminergic neuron differentiation score” value ([2]; library: Phytochemical) was inactive: 0.

With `CN[C@@H]1[C@@H](O)[C@@H](O[C@@H]2[C@@H](O)[C@H](O[C@H]3O[C@H]([C@@H](C)O)[C@@H](O)[C@H](O)[C@H]3N)[C@@H](N)C[C@H]2N)OC[C@]1(C)O` the neuronal differentiation score ([1]; library: Spectrum) was inactive: 0 and the “dopaminergic neuron differentiation score” value ([2]; library: Spectrum) was inactive: 0.

For `CC(C)(C)NCC(O)c1ccccc1Cl` (stereo not given) [Tulobuterol hydrochloride], the neuronal differentiation score ([1]; library: LOPAC) was inactive: 0 and the “dopaminergic neuron differentiation score” value ([2]; library: LOPAC) was inactive: 0.

`CN(C)CCN(C)CCc1ccc(Cl)c(Cl)c1` [BD 1047 dihydrobromide] was tested, and the neuronal differentiation score ([1]; library: Tocriscreen) was inactive: 0 and the “dopaminergic neuron differentiation score” value ([2]; library: Tocriscreen) was inactive: 0.

In the case of `COc1ccc(C(=O)c2c(C)n(CCN3CCOCC3)c3cc(I)ccc23)cc1`, the neuronal differentiation score ([1]; library: Tocriscreen) is reported as inactive: 0 and the “dopaminergic neuron differentiation score” value ([2]; library: Tocriscreen) is reported as inactive: 0.

`c1ccc2nc(N3CCNCC3)ccc2c1` was tested, and the neuronal differentiation score ([1]; library: Spectrum) was inactive: 0 and the “dopaminergic neuron differentiation score” value ([2]; library: Spectrum) was inactive: 0.

For `COP(=O)(OC)C(O)C(Cl)(Cl)Cl` (stereo not given) [Trichlorfon], the neuronal differentiation score ([1]; library: Prestwick) was inactive: 0 and the “dopaminergic neuron differentiation score” value ([2]; library: Prestwick) was inactive: 0.

`O=c1c(O)c(-c2ccc(O)c(O)c2)oc2c(O)c(O)cc(O)c12` was tested, and the neuronal differentiation score ([1]; library: Spectrum) was inactive: 0 and the “dopaminergic neuron differentiation score” value ([2]; library: Spectrum) was inactive: 0.

`CC(=O)OC1CCC23C(=O)OC45CCC(C6=CC(=O)OC6)C4(C)CCC2C5CCC3(O)C1` (stereo not given) was tested, and the neuronal differentiation score ([1]; library: Spectrum) was inactive: 0 and the “dopaminergic neuron differentiation score” value ([2]; library: Spectrum) was inactive: 0.

For `CC1Cc2cc3c(cc2C(c2ccc(N)cc2)=NN1)OCO3` (stereo not given), the neuronal differentiation score ([1]; library: LOPAC) was inactive: 0 and the “dopaminergic neuron differentiation score” value ([2]; library: LOPAC) was inactive: 0.

`COc1ccc2[nH]c3c(c2c1)CCN=C3C` [Methoxy-6-harmalan] was tested, and the neuronal differentiation score ([1]; library: Phytochemical) was inactive: 0 and the “dopaminergic neuron differentiation score” value ([2]; library: Phytochemical) was inactive: 0.

With `COC(=O)N1CCN(C(=O)Cc2ccc(Cl)c(Cl)c2)C(CN2CCCC2)C1` (stereo not given) the neuronal differentiation score ([1]; library: LOPAC) was inactive: 0 and the “dopaminergic neuron differentiation score” value ([2]; library: LOPAC) was inactive: 0.

`CC(=O)NBr` [N-Bromoacetamide] was tested, and the neuronal differentiation score ([1]; library: LOPAC) was inactive: -1 and the “dopaminergic neuron differentiation score” value ([2]; library: LOPAC) was inactive: 0.

In the case of `CCN1C[C@]2(COC)CC[C@H](OC)[C@]34C5C[C@@H]6[C@@H](OC)C[C@@]7(OCO[C@@]7(C13)[C@@H](O)C24)C5[C@H]6OC` (stereo not given in full) [Delcorine], the neuronal differentiation score ([1]; library: Phytochemical) is reported as inactive: 0 and the “dopaminergic neuron differentiation score” value ([2]; library: Phytochemical) is reported as inactive: 0.

For `CC(=O)O[C@@H]1[C@H]2CC[C@H]3[C@@](C)(O)[C@@H]4C[C@H](O)C(C)(C)[C@@]4(O)[C@H](O)C[C@@]13C[C@@]2(C)O`, the neuronal differentiation score ([1]; library: Spectrum) was inactive: 0 and the “dopaminergic neuron differentiation score” value ([2]; library: Spectrum) was inactive: 0.

In the case of `Clc1ccc(C(OCCN2CCCCC2)c2ccccc2)cc1` (stereo not given) [Cloperastine hydrochloride], the neuronal differentiation score ([1]; library: Prestwick) is reported as inactive: 0 and the “dopaminergic neuron differentiation score” value ([2]; library: Prestwick) is reported as inactive: 0.
